The values below come from the odorant receptor screen of Mainland et al. (2015).

Each structure is given as a SMILES string. Where “and” joins values, the source holds several entries; their conditions need not be identical. Equal entries are not always repeated. Some of the results follow. Single wells; the ratio to wells without odorant was worked out here, and repeats agree poorly.

The test system of the first assay is OR6K6 clone 1348. Kind of assay: odorant receptor activation (CRE luciferase / Renilla) (fold of no-odor wells); higher = more activation. The settings on record: 100 µM.
As for `CCCCCC(C)=O` [2-heptanone], the odorant receptor activation was 0.784 and 0.555.

Turning to `CC(C)C(=O)O` [isobutyric acid], the odorant receptor activation was 1.16 and 0.822.

As for `O=C1CCCCC1` [Cyclohexanone], the odorant receptor activation is 0.707 and 0.7.

Compound `CC(C)CCC(=O)O` [4-methylvaleric acid] had an odorant receptor activation of 0.942.

In the case of `CCCCCOC(C)=O` [n-amyl acetate], the odorant receptor activation was 0.76 and 0.578.

As for `CC12C=CCC1C1CCC3=CC(=O)CCC3(C)C1CC2` (configuration not stated) [androstadienone], the odorant receptor activation was 0.658 and 0.637.

As for `CC(=O)OC(C)(C)C1CC=C(C)CC1` (configuration not stated) [terpinyl acetate], the odorant receptor activation is 0.792.

Turning to `CC=Cc1ccc(O)c(OC)c1` [isoeugenol], the odorant receptor activation was 1.44 and 0.914.

Compound `CCCC(=O)O` [butyric acid] returned an odorant receptor activation of 0.744.

`C=CCSCC=C` [diallyl sulfide] came in with an odorant receptor activation of 1.07.

For the compound `CCCCCCCCCC=O` [decyl aldehyde], the odorant receptor activation came to 1.38.

Another assay relates to OR6K6 clone 1392. The assay is described as above. The settings on record: 100 µM.
Consider `CC(C)(C)c1ccc(CCC=O)cc1` [bourgeonal], for which the odorant receptor activation stood at 0.153.

`CC(=O)c1ccccc1` [acetophenone] yielded an odorant receptor activation of 0.801.

In the case of `CCCCCCCCC=O` [nonyl aldehyde], the odorant receptor activation stood at 0.834.

Take `CCCCCC(=O)O` [caproic acid]: the odorant receptor activation was 0.152.

In turn, `CC1=CCC(C(C)(C)O)CC1` (configuration not stated) [terpineol] had an odorant receptor activation of 1.18.

Regarding `CCCCCCCCOC(C)=O` [octyl acetate], the odorant receptor activation is 0.849.

`COC(=O)c1ccccc1` [methyl benzoate] had an odorant receptor activation of 0.855.

`O=C1CCCCCCCCCCCCCCO1` [pentadecalactone] gave an odorant receptor activation of 1.1.

In the case of `COc1cc(C)ccc1O` [2-methoxy-4-methylphenol], the odorant receptor activation is 1.02.

Turning to `CC12C=CCC1C1CCC3CC(=O)CCC3(C)C1CC2` (configuration not stated) [androstenone], the odorant receptor activation is 1.16.

For `CCCCCCCOC(C)=O` [heptyl acetate], the odorant receptor activation is 1.02.
